Source: ChEMBL document CHEMBL3988442, “University of Dundee, Small-Polar-MMV Screening Library” (2021).

Protein sequences, listed by entry. Tags and fused reporters are not part of them.
UniProt P9WPC5, whole entry: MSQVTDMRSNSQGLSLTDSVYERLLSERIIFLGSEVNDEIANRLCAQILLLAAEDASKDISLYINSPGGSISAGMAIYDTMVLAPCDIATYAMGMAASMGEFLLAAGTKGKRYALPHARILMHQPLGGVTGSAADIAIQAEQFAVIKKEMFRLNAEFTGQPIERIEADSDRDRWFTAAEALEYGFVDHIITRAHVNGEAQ
UniProt P9WPC3, whole entry partner: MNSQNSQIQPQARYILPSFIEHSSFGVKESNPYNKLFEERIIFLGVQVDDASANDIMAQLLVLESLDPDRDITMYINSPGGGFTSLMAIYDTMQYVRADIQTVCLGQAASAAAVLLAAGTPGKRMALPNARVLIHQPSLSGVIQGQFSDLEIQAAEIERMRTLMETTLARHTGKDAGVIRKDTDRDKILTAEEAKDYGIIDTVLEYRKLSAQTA

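ClpP1P2, Mycobacterium tuberculosis (UniProt P9WPC5 and UniProt P9WPC3). Protease assay of ClpP1P2, read by the AMC dye that it sets free. Tested at 50 µM. Higher reads as stronger inhibition, judged from the few compounds that gave an IC50. Most other retested compounds had strongly negative values. Size under these conditions: about 69,000 compounds, about 10 of them at 50% or above in at least one test.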

Each number is a percent effect as filed. The controls that fix the scale are not given in the record; negative values are as filed. The compounds are a random part of those screened.

SMILES	Percent Effect
O=C(CCc1ccccc1F)N1CCC(Nc2cccnn2)CC1	-40.38
CSCCNC(=O)c1coc(COc2ccc(F)cc2)n1	-7.793
CCCC(C)C(=O)Nc1ccc(OC)nc1N1CCN(C(C)=O)CC1 (stereo unspecified)	-7.514
CN1CCCNC(=O)C12CCN(C(=O)c1ccc3[nH]cnc3c1)CC2	-7.002
Cc1cccnc1CN1CCN(C[C@]2(O)CCCN3CCCC[C@@H]32)CC1	-9.183
Cc1cnc(CCNC(=O)NCCOc2ncccc2Cl)s1	-1.91
C=C(C)CN1CCN(Cc2cnc(-c3ccccc3C)nc2)CC1	-5.775
COc1ccccc1OCC(=O)NS(=O)(=O)c1ccc(F)cc1F	-4.566
Cc1ccc(S(=O)(=O)n2ccn(C(=O)CC(C)C)c2=O)cc1	-16.3
O=C1OC2(CCN(C3CCCOC3)CC2)CN1CCc1ccccc1 (stereo unspecified)	6.921
CCn1cc(NC(=O)NCc2ccc3c(c2)OCCO3)cn1	3.727
CCSCC(C)NCc1cc(-c2ccco2)on1 (stereo unspecified)	-9.193
O=C(CCc1ccco1)N1CCCN(Cc2cscn2)CC1	13.97
Cc1ccccc1CCNC(=O)CN1CCCC(Cn2cncn2)C1 (stereo unspecified)	-23.91
O=C(O)c1coc(COc2cccc3cnccc23)n1	-3.758
CCOC(=O)CNC(=O)NCc1cc(C)n(-c2ccccc2OC)c1C	-0.4625
CCOCc1cnc2n1CCN(C(=O)c1cccc3c1OCCO3)C2C (stereo unspecified)	11.25
Cc1ccccc1OCC(O)C(=O)N1CCC2(CC1)CN(C)C(=O)O2 (stereo unspecified)	-8.99
O=C(NCc1ccccc1F)N1CCC(C2OCCO2)CC1	-0.1618
CCN(Cc1nonc1C)C(=O)c1cc(C(F)(F)F)nn1C	-5.199
Cc1nnc([C@]23COC[C@H]2CN(Cc2cccs2)C3)o1	14.73
Cc1cc(OCC(=O)NS(=O)(=O)c2c(C)noc2C)ccc1Cl	3.041
Cc1ncsc1C(=O)N1CCC(c2ccc3c(NC(C)C)n[nH]c3n2)C1 (stereo unspecified)	2.385
CCc1ccc(C(=O)Nc2ccc(CC3CC(=O)NC3=O)cc2)s1 (stereo unspecified)	1.348
N[C@@H]1c2ccccc2C2(CCN(c3ncccc3C(F)(F)F)CC2)[C@H]1O	-4.448
CCCOc1cc(C)ccc1NC(=O)NCCNC(=O)C(C)C	1.371
c1ccc(CCN2CCCC(Cn3ccnc3)C2)cc1 (stereo unspecified)	-4.672
CCC(NC(=O)C(C)(C)C)c1ccccc1C (stereo unspecified)	-15.05
O=C(Nc1ccccc1)C1CN(CC2CC2)CC12CCOCC2 (stereo unspecified)	-4.558
Cc1ccc(OCCC(=O)NC(C)c2ccncc2)cc1 (stereo unspecified)	-5.889
CCn1cnnc1CNC(=O)N1CCN(Cc2ccccc2)CC1	7.169
Cc1cc2n(n1)CC(CNC1CCN(Cc3ccncc3)CC1)CN2 (stereo unspecified)	-0.0651
O=C(NCC1CC1)[C@H]1CC[C@@H]2[C@@H](CCN2Cc2nccs2)O1	-6.426
CCN(CC)Cc1ccc(C(=O)N2CCN(CC(C)O)CC2)cc1 (stereo unspecified)	7.493
N#Cc1cccnc1NCCNC(=O)NCCSC(F)(F)F	4.507
Cc1nnc([C@@]23CCO[C@@H]2CCN(Cc2ccc4c(c2)OCO4)C3)o1	-12.16
COCc1nn(C)c2c1CCN(Cc1cnn(C)c1)C2	-11.62
CC(=O)c1ccc(NC(=O)c2ccc3c(c2)C2(CCCCC2)CN3)cc1	-10.9
Cc1ccc(C(O)CNC(=O)c2cccnc2O)cc1 (stereo unspecified)	-0.7537
CCOc1ccc(N(CCC#N)C(=O)c2ccc(OC)nc2)cc1	7.672
CCCOc1cc(CNC(=O)Nc2cccc(C(C)=O)c2)ccn1	-6.03
O=S(=O)(c1ccc(F)cc1)N1CCCn2cnc(CN3CCCC3)c2C1	-3.562
COCCn1cnc2ccc(NC(=O)c3ccccn3)cc2c1=O	-3.584
Cc1nc(CSCc2ccc(OCC(F)(F)F)nc2)no1	-9.869
COc1ccc(C(CNC(=O)c2c(C)noc2C)N(C)C)cc1 (stereo unspecified)	-29.67
COCCCC1(CO)CCCN(CCOC)C1 (stereo unspecified)	-10.05
CCN1CCOC(CNCc2ccccc2OCc2cccnc2)C1 (stereo unspecified)	-33.2
COC(=O)C(O)C1CCN(CCc2ccncc2)CC1 (stereo unspecified)	-8.627
COCC(=O)N1CCCC(C(=O)N(C)CCn2ccnc2C)C1 (stereo unspecified)	5.722
Cn1cccc(NC(=O)N2CCC(CSc3ccccc3)C2)c1=O (stereo unspecified)	2.204
CC(c1ccon1)N(C)C(=O)C1CCN(C2CCCCC2)CC1 (stereo unspecified)	-9.839
CCn1nccc1CNC(=O)C1CC1	0.5722
CCc1c(C)nn(CC(=O)NC(C)c2n[nH]c(C)n2)c1C (stereo unspecified)	9.538
CN(Cc1nccn1C)c1nccc(N2CCCC(O)C2)n1 (stereo unspecified)	-1.221
CCOCCC(=O)NC(c1noc(C)n1)c1ccccc1F (stereo unspecified)	-9.628
Cn1cc(-c2nnn3c2COC(CNCc2cccnc2)C3)cn1 (stereo unspecified)	-1.485
CC(=O)N1C[C@H](NS(=O)(=O)N2CCOCC2)[C@@H](c2ccc(C)o2)C1	3.635
N#Cc1ccccc1OCCN1CCC(C(=O)N2CCOCC2)CC1	-7.191
N#Cc1ccccc1N1CCCN(C(=O)CCn2cccn2)CC1	-4.547
c1cc2nc(C3CCN(CC4CC4)CC3)nn2cc1N1CCCC1	-16.73
Cc1cc(C)nc(CN(C)c2nc(C3CCCC3)nc3c2cnn3C)c1	-6.635
Cc1cnc(NC(=O)c2csc(NC3CCCC3)n2)s1	-8.559
CC(OCC(F)(F)F)C(=O)NCCN(C)C (stereo unspecified)	4.279
Cc1cc(CN(C)C(=O)NCc2ccnc(OC3CCCC3)c2)no1	-1.229
O=C(Nc1ccc2c(c1)OCO2)N1CCCC1c1ccco1 (stereo unspecified)	-10.75
COc1cccc(CC2(C(=O)O)CCN(c3ccc(Cl)cn3)CC2)c1	-14.74
Cc1cc(O)nc(C2CN(CCO)CCO2)n1 (stereo unspecified)	-20.31
Cc1ccn(-c2ccc(N3CCN(Cc4ccccn4)CC3)nn2)n1	-0.3866
Cn1c(CN2CCC(O)CC2)nnc1C1CCCN(C(=O)C2CNC2)C1 (stereo unspecified)	-4.09
Cc1cc(NC(=O)NCC(O)c2ccc(Cl)cc2Cl)n(C)n1 (stereo unspecified)	2.682
Nc1cc(C(=O)N2CCC(Oc3cccc(C(F)(F)F)c3)CC2)ccn1	-1.667
Cc1cc(C2CCCN2C(=O)CN2CCc3ccccc32)on1 (stereo unspecified)	-2.467
CCc1nccn1CC1CCCN1S(=O)(=O)Cc1ccccc1 (stereo unspecified)	-27.73
OCCc1cn(CC2CCCN(Cc3nccs3)C2)nn1 (stereo unspecified)	-7.67
O=C1CC[C@]2(CC[C@@H](NC3CCOCC3)CC2)N1Cc1ccccc1	-17.48
CCOc1cc(NC(=O)C2CC(=O)N(c3cccc(OC)c3)C2)ncn1 (stereo unspecified)	0.3784
CCc1ncnc2c1CCN(C(=O)c1ccccn1)CC2	-1.845
CC(C)c1[nH]c2ncccc2c1CN1CCC(O)CC1	2.143
COc1cccc2c1N(Cc1nc(C3CC3)no1)CCC2	2.586
O=C(Cc1n[nH]c2ccccc12)N1CCCCC1Cn1cccn1 (stereo unspecified)	-22.98
CS(=O)(=O)N1C[C@H](C(=O)Nc2cccnc2)[C@@H]2CCO[C@@H]2C1	-0.3832
CC(C)(C)c1oc(C(N)=O)cc1CN1CCCCC1CN1CCOCC1 (stereo unspecified)	6.484
O=C(CC1CSc2nccc(=O)n21)NCc1cc(-c2ccco2)on1 (stereo unspecified)	-1.251
Cc1cnc(CCNC(Cc2ccncc2)C(F)(F)F)s1 (stereo unspecified)	1.771
COc1ccc(CN2C[C@@H](CN(C)C)[C@@H](CO)C2)cc1CN1CCCC1	9.574
OC(COCc1cccs1)Cn1cc(Br)cn1 (stereo unspecified)	19.53
COc1ccccc1OC1CN(C(=O)C(c2ccccc2F)N(C)C)C1 (stereo unspecified)	-5.878
O=C(CSC1=NS(=O)(=O)c2cc(F)ccc2N1)Nc1ccc(Cl)cc1	17.18
O=C(O)c1cccnc1CN1CCCC1CCc1ccccc1 (stereo unspecified)	-9.772
c1cnc(N2CCC3(COCCN(CC4CCOCC4)C3)C2)nc1 (stereo unspecified)	14.84
Cc1cc(CNC(=O)c2ccno2)c(C)o1	-14.98
CCc1ccc(C(=O)NC[C@H]2CCCN2C(=O)c2ccc(CC)o2)o1	4.81
Cn1cnc2c1CCN(Cc1cccc(OCC(N)=O)c1)C2	7.768
N#CC1COCCN1C(=O)c1cccc2cc[nH]c12 (stereo unspecified)	-2.443
COc1c(CNCc2ccc(Cn3ccnc3)cc2)c(C)nn1C	-11.02

Once more, the final 5:

Result for Cc1cc(CNC(=O)c2ccno2)c(C)o1 was -14.98%.
Result for CCc1ccc(C(=O)NC[C@H]2CCCN2C(=O)c2ccc(CC)o2)o1 was 4.81%.
Result for Cn1cnc2c1CCN(Cc1cccc(OCC(N)=O)c1)C2 was 7.768%.
Result for N#CC1COCCN1C(=O)c1cccc2cc[nH]c12 (stereo unspecified) was -2.443%.
Result for COc1c(CNCc2ccc(Cn3ccnc3)cc2)c(C)nn1C was -11.02%.